PubChem BioAssay AID743121, NCATS, 2013
Test: 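Genes whose silencing strengthens cell killing by camptothecin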 (primary screen). Cell system: MDA-MB-231 cells, a human breast cancer line. Reagent: single siRNA against human genes, 20 nM siRNA (0.8 pmol per well). Duration: 120 h (drug added 48 h after transfection, read 72 h later). Conditions: camptothecin 20 nM (about EC30) for 72 h; vehicle 0.1% DMSO in parallel plates. Read-out: 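Cell viability by ATP luminescence (CellTiter-Glo) as % of non-targeting siRNA wells, and the log2 ratio of viability without drug over viability with camptothecin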. Reading the numbers: log2 vehicle/camptothecin viability: higher = stronger sensitisation to camptothecin; viability with camptothecin: higher = more viable cells. Call rule: 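Active genes have an RSA gene-level p-value below 0.001, computed from the ratios of their separate siRNAs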.
The whole screen tested about 26,000 reagents; below is a random part of them. 167 of them (0.63%) were called active. 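Calls are per gene from RSA p-values that are not deposited; an individual active-marked siRNA can sensitise only weakly.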 The numbers tell different reagents against one gene apart. Not all columns of the deposit are shown.

target	reagent	log2 vehicle/camptothecin viability	viability with camptothecin (% of control)	Outcome
PPM1F	1	-0.507	27.7	inactive
PPM1F	2	-0.273	114	inactive
PPM1F	3	-0.204	79.5	inactive
PPM1F	4	-0.121	74.2	inactive
SH2D3A	1	-0.298	43.5	inactive
SH2D3A	2	0.239	23.6	inactive
SH2D3A	3	0.0547	97.4	inactive
SH2D3A	4	-0.42	66.5	inactive
TMEM87A	1	-0.473	71.4	inactive
TMEM87A	2	-0.158	79.8	inactive
TMEM87A	3	0.259	70	inactive
PRPF8	1	-0.533	23	inactive
PRPF8	2	-0.512	27.4	inactive
PRPF8	3	-0.748	25.2	inactive
PRPF8	4	0.0868	6.36	inactive
GPR82	1	-0.232	120	inactive
GPR82	2	-0.477	97.4	inactive
GPR82	3	-0.533	78.4	inactive
GPR82	4	-0.402	98.2	inactive
LRRC4C	1	-0.133	105	inactive
LRRC4C	2	-0.593	105	inactive
LRRC4C	3	0.489	79.3	inactive
LRRC4C	4	-0.322	127	inactive
PLA2G2A	1	-0.0271	65	inactive
PLA2G2A	2	-0.602	67.8	inactive
PLA2G2A	3	-0.229	77.1	inactive
PLA2G2A	4	1.09	15.1	inactive
HAL	1	-0.499	130	inactive
HAL	2	-0.311	47.6	inactive
HAL	3	-0.238	89.2	inactive
HAL	4	-0.119	63.2	inactive
TMEM171	1	-0.455	77.1	inactive
TMEM171	2	-0.303	53.2	inactive
TMEM171	3	0.768	16.5	inactive
TMEM171	4	0.0546	82.7	inactive
AIF1	1	0.202	80.3	inactive
AIF1	2	-0.0503	98.7	inactive
AIF1	3	-0.412	84.9	inactive
AIF1	4	-0.097	93.7	inactive
ABCF3	1	0.0265	81.6	inactive
ABCF3	2	-0.207	92.6	inactive
ABCF3	3	-0.179	93.6	inactive
ABCF3	4	-0.246	82.2	inactive
RBAK	1	-0.276	103	inactive
RBAK	2	0.91	39.8	inactive
RBAK	3	0.577	47.7	inactive
RBAK	4	-0.0983	19.3	inactive

3 entries already listed, arranged by “viability with camptothecin (% of control)”, highest first.
target	reagent	log2 vehicle/camptothecin viability	viability with camptothecin (% of control)	Outcome
SH2D3A	3	0.0547	97.4	inactive
TMEM87A	1	-0.473	71.4	inactive
SH2D3A	4	-0.42	66.5	inactive
